{"sequences": {"note": "Protein sequences, listed by entry. Tags and fused reporters are not part of them. Residues count along the entry.", "UniProt Q9WTX6": "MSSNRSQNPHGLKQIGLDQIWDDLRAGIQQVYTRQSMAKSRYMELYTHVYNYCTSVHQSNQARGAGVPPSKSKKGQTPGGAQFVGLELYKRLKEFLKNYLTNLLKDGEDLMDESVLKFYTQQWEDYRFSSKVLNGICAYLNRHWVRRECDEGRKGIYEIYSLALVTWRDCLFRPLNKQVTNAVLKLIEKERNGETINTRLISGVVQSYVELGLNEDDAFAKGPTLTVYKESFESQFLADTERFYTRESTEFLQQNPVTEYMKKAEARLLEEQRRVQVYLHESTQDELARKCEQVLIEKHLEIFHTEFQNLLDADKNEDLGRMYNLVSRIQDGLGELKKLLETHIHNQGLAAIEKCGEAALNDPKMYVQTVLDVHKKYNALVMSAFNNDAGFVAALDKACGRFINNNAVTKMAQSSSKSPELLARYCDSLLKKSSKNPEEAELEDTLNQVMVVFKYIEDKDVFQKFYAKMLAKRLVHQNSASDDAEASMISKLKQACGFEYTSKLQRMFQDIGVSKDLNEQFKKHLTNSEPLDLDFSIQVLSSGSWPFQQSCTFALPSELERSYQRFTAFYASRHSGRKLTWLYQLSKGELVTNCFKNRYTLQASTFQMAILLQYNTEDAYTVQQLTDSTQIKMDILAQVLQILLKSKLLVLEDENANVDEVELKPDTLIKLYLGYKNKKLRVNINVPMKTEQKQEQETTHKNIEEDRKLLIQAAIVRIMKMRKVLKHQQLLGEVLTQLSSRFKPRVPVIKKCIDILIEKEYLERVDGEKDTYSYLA", "UniProt P29595, residues 1-76": "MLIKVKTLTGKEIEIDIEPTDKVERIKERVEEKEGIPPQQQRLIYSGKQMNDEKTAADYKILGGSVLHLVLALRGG"}, "source": "paper PMC7403704", "molecular_target": "cullin 1, mouse (mouse (endogenous in colon tissue)) (UniProt Q9WTX6)", "test": "co-IP; Pierce Co-Immunoprecipitation Kit, antibody immobilised on resin, eluate read by Western blot; mouse colon tissue; groups: Neg, DSS, hucMSC-Ex, and hucMSC-Ex transfected with miR-326 mimics, mimics NC, inhibitor or inhibitor NC", "note": "No constants are given. Whether binding was seen depends on the method and setting. Binding seen in cells or lysates may run through a third protein. Some binding calls cover weakened binding; strength is not graded here.", "data": [{"substance": "NEDD8 (neural precursor cell-expressed, developmentally downregulated gene 8), mouse (from UniProt P29595 1-76)", "values": [{"measurement": "binding", "result": "binds"}]}]}
